Source: PubChem BioAssay AID493014 (National Center for Advancing Translational Sciences (NCATS), 2011)
Among all 340,000 compounds or so, about 170 (0.05%) were called active. The shares of active, inactive and inconclusive entries below differ from those in the screen. The call rests on the fitted dose curve; in most records, active means well fitted inhibition curve with a large enough effect in the signal ratio, with a control signal flat (not every such curve was filed as active); inconclusive means small, poorly fitted or top-dose-only effect, or effect the other way, or a change in a side signal; inactive means flat fitted curve, though single readings scatter; the % refers to the signal ratio. A potency beside an inconclusive call is a rough fit, not a confirmed value.
Potency means the concentration at half of the fitted maximal effect.

Assay: qHTS Assay to Find Inhibitors of Chronic Active B-Cell Receptor Signaling;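 on activity change, negative = inhibition: plate controls were basal doxycycline-induced cells for no effect and cells given 10 µM MG132 for full effect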
Conditions: ABC-DLBCL IkBa-CBG/CBR reporter, luminescence ratio (green luciferase fused to IkBa over red control in TMD8 lymphoma cells), 4 h; activity change, negative = inhibition: at 46.1 µM (top of the series)
How it was run: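 Compounds up to 46 uM were incubated four hours with TMD8 cells whose green CBG68 luciferase is fused to IkappaBalpha; red CBR luminescence normalised the signal, and concentration-effect curves were fitted to fusion, red and ratio data.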
For Cc1ccc(C(=O)OCC(=O)Nc2ccccc2)cc1NC(=O)c1ccco1, the “activity change, negative = inhibition” value was inactive: -10.4%. With CC1(C)CC(=O)C(C=Nc2ccc(NC3=C(C#N)C(=O)CC(C)(C)C3)cc2)=C(O)C1 the “activity change, negative = inhibition” value was inactive: 0.916%. For Cc1cccc(C(=O)N=c2sccn2C)c1[N+](=O)[O-], the “activity change, negative = inhibition” value was inactive: -12.9%. In the case of CSc1ccccc1C(=O)Nc1ncc(C)s1, the activity change, negative = inhibition is reported as inconclusive: -3.21%. With CC(=O)c1ccc2noc(-c3cccc(C)c3)c2c1 the Potency was inconclusive: 31.6 µM [falling, single point]. For CN1CCN(c2ccc(Cl)cc2NC(=O)/C=C/c2ccc(F)cc2)CC1, the activity change, negative = inhibition was inconclusive: -20.8%. In the case of Cc1noc(C)c1S(=O)(=O)N(C)C[C@H]1Oc2c(NC(=O)Nc3ccc4c(c3)OCO4)cccc2C(=O)N([C@H](C)CO)C[C@@H]1C, the activity change, negative = inhibition is reported as inconclusive: -0.993%. With CN1CCN(c2nc3nonc3nc2N2CCN(C)CC2)CC1 the activity change, negative = inhibition was inconclusive: -5.19%. With Cc1ccc(-c2nc3ccccc3[nH]2)s1 the activity change, negative = inhibition was inconclusive: -25%. With CCCCSc1nnc(CNC(=O)C23CC4CC(CC(C4)C2)C3)n1Cc1ccccc1 the activity change, negative = inhibition was inconclusive: 12.9%. In the case of Cc1ccc(C)c(Cn2nnc3c(=O)[nH]c(C4CCN(S(=O)(=O)c5ccc(S(=O)(=O)NC6CC6)cc5)CC4)nc32)c1, the activity change, negative = inhibition is reported as inconclusive: 2.51%. For O=C(O)[C@@H]1CCCN1C(=O)CCc1c[nH]c2ccccc12, the activity change, negative = inhibition was inconclusive: 4.87%. For CCCn1ncc(CN2CCC(C(=O)Nc3cccc(-c4cccc(F)c4)c3)CC2)c1C, the Potency was inconclusive: 35.5 µM [falling, single point]. With Cc1ccccc1N(CC(=O)NCc1ccccc1)C(=O)CCC(=O)Nc1nccs1 the activity change, negative = inhibition was inconclusive: 4.36%. With Cc1cccc(N2C(=O)C(Oc3ccc(Cl)cc3Cl)C2C=O)c1C (configuration not stated) the activity change, negative = inhibition was inconclusive: 4.78%. In the case of CCc1c(C)nc(SC/C=C/c2ccccc2)[nH]c1=O, the activity change, negative = inhibition is reported as inconclusive: 21.8%. In the case of O=C(O)c1ccc(NS(=O)(=O)c2cccc(C(=O)Nc3ccc(Br)cc3)c2)cc1, the “activity change, negative = inhibition” value is reported as inactive: 2.38%. With NNC(=O)CS(=O)(=O)CS(=O)(=O)CC(=O)NN the activity change, negative = inhibition was inconclusive: -0.933%. In the case of Cn1c2ccccc2c2ncn(Cc3ccco3)c(=O)c21, the activity change, negative = inhibition is reported as inconclusive: -11.6%. For CCn1c2ccccc2c2cc(NC(=O)c3ccccc3[N+](=O)[O-])ccc21, the Potency was inconclusive: 0.92 µM [falling, partial curve]. With CC1(C(=O)Nc2cccc(C(F)(F)F)c2)CO1 (configuration not stated) the activity change, negative = inhibition was inconclusive: -1.61%. With COc1ccc2nc(NC(=O)Cc3ccc(OC)c(S(=O)(=O)N4CCOCC4)c3)sc2c1 the Potency was inconclusive: 25.9 µM [falling, partial curve, poor fit]. With Cn1nccc1C(=O)N/N=C/c1cccnc1 the Potency was inconclusive: 12.6 µM [falling, single point]. With Cc1c(C(=O)N/N=C/c2cccnc2)sc(=S)n1C the activity change, negative = inhibition was inconclusive: -17.7%. For CCSc1nn2c(=O)c3ccccc3nc2s1, the “activity change, negative = inhibition” value was inactive: 22.5%. With COC(=O)c1ccc(-c2nc(O)c(C)s2)cc1 the “activity change, negative = inhibition” value was inactive: -2.33%. For CN(C)CCCN(C(=O)CCOc1ccccc1)c1nc2ccc(F)cc2s1, the Potency was inconclusive: 5.62 µM [falling, single point]. For CCOC(=O)Cc1csc(NC(=O)/C=C/c2ccccc2Cl)n1, the activity change, negative = inhibition was inconclusive: 399%. For C=CCn1c(SCC(=O)Nc2sccc2C(N)=O)nc2ccc(Cl)cc2c1=O, the activity change, negative = inhibition was inconclusive: 7.36%. With C=C(C)CN1C(=O)C2(OCCO2)c2ccccc21 the “activity change, negative = inhibition” value was inactive: 0.563%. With c1ccc2nc3c(cc2c1)CCCCCC3 the “activity change, negative = inhibition” value was inactive: 9.41%. For CCC(C(=O)NC(C)CCc1ccccc1)n1nc(C)n2c(cc3occc32)c1=O (configuration not stated), the activity change, negative = inhibition was inconclusive: -7.01%. In the case of COc1cc(NC(=O)c2cccs2)c(OC)cc1NC(=O)Cc1ccccc1, the “activity change, negative = inhibition” value is reported as inactive: 11.9%. For COc1cc2c(cc1OC)C1=NC(=O)CN1C(SCc1ccccc1)=N2, the “activity change, negative = inhibition” value was inactive: -2.4%. In the case of S=C(c1ccc(-c2cccc(Cl)c2)o1)N1CCCCC1, the activity change, negative = inhibition is reported as inconclusive: 19.2%. In the case of CCc1nc2ccc(C(=O)N3CCN(c4ccc([N+](=O)[O-])cc4)CC3)cc2nc1CC, the activity change, negative = inhibition is reported as inconclusive: -0.0116%. For CCOc1ccccc1NC(=O)COc1ccc2c(c1)OCO2, the activity change, negative = inhibition was inconclusive: 0.446%. For CN1CCN(Cc2nc3ccccc3c(=O)n2Cc2nc(-c3ccc([N+](=O)[O-])cc3)cs2)CC1, the activity change, negative = inhibition was inconclusive: 13.9%. With CC1=C(C(=O)N2CCOCC2)C(c2ccc(-c3ccccc3)cc2)NC(=S)N1 (configuration not stated) the “activity change, negative = inhibition” value was inactive: 6.41%. In the case of CCCn1c(C)cc(/C=C(\C#N)C(=O)OCC(=O)NC(=O)NC(C)(C)C)c1C, the activity change, negative = inhibition is reported as inconclusive: -22.1%. With CSc1nncc(/C(C)=N\Nc2ccccc2)n1 the activity change, negative = inhibition was inconclusive: 14.4%. In the case of O=C(CSc1nc2ccccc2s1)NNC(=S)Nc1ccc(Br)cc1, the Potency is reported as inconclusive: 12.6 µM [rising, partial curve, poor fit]. In the case of NNC(=O)c1cccc(COc2ccc(Br)cc2)c1, the Potency is reported as inconclusive: 29.1 µM [falling, single point]. For CCOC(=O)C1CCN(C(=O)COc2ccc3c(C)cc(=O)oc3c2)CC1, the Potency was inconclusive: 23.1 µM [falling, partial curve]. For COC(=O)CCc1sc(Nc2ccc(Br)cc2)nc1-c1ccc(OC)cc1, the activity change, negative = inhibition was inconclusive: -5.28%. For CCn1cnc2sc(-c3ccccc3)cc2c1=O, the Potency was inconclusive: 20.6 µM [falling, single point]. With COc1ccc(C[C@H]2CN3C(=NC[C@@H]3C(C)C)N2CCNC(=O)CCC2CCCCC2)cc1 the Potency was inconclusive: 11.2 µM [falling, partial curve, poor fit]. For Cc1cc(C(=O)c2cnc(/N=C/N(C)C)s2)cc(C)c1O, the Potency was inconclusive: 12.6 µM [falling, partial curve, poor fit]. For Cc1ccc(S(=O)(=O)N2CCN(C(=O)CSc3nccn3C)CC2)cc1, the activity change, negative = inhibition was inconclusive: -5.59%. In the case of CCOC(=O)c1c(-c2ccccc2)csc1NC(=O)C(C)NCCCN1CCOCC1 (configuration not stated), the “activity change, negative = inhibition” value is reported as inactive: -6.44%. For COc1ccc(N=Cc2c(O)ccc3ccccc23)cc1, the “activity change, negative = inhibition” value was inactive: -12.5%. For CCCCn1c(=O)nc2n(-c3ccc(C)cc3)c3ccccc3cc-2c1=O, the activity change, negative = inhibition was inconclusive: 5.99%. For CC(C)(C)c1ccc(C(=O)Nc2ccc(CC(=O)O)cc2)o1, the Potency was inconclusive: 25.9 µM [falling, partial curve]. In the case of COc1ccc(/C=C(\NC(=O)c2ccco2)C(=O)NCc2ccco2)cc1, the activity change, negative = inhibition is reported as inconclusive: -7.69%. In the case of CCn1c2ccccc2c2cc(/C=N/n3c(C)nnc3C)ccc21, the Potency is reported as inconclusive: 9.2 µM [falling, partial curve, poor fit]. With CCN(C(=S)Nc1cccc(C)c1)c1ccccc1 the activity change, negative = inhibition was inconclusive: 14.9%. In the case of CCOc1ccc(NC(=O)Cc2ccc(S(=O)(=O)N3CCOCC3)s2)cc1OCC, the “activity change, negative = inhibition” value is reported as inactive: -0.646%. In the case of CCOc1ccc(CCNC(=O)C2CSC3(C)CCC(=O)N23)cc1OCC (configuration not stated), the “activity change, negative = inhibition” value is reported as inactive: 2.71%. With Cc1cc(C)n(-c2nc(N(c3ccccc3)c3ccccc3)nc(-n3nc(C)cc3C)n2)n1 the “activity change, negative = inhibition” value was inactive: -16.7%. For Cc1cc(C)nc(NS(=O)(=O)c2ccc(NC(=O)c3cc(-c4ccccc4)nc4ccccc34)cc2)n1, the “activity change, negative = inhibition” value was inactive: -9.15%. In the case of Cn1cccc1CNC(=O)Nc1ccc(Cl)cc1, the Potency is reported as inconclusive: 35.5 µM [falling, partial curve, poor fit]. In the case of Cn1c(N)c(C(=O)COC(=O)C2CCN(S(=O)(=O)c3cccs3)CC2)c(=O)n(C)c1=O, the activity change, negative = inhibition is reported as inconclusive: -0.0628%. With CC(C)c1ccccc1NC(=O)c1cnccn1 the activity change, negative = inhibition was inconclusive: 5.25%. In the case of COc1ccc(C)cc1NC(=O)CSc1nnc(-c2ccc(Br)cc2)o1, the “activity change, negative = inhibition” value is reported as inactive: 3.01%. For C/C(=N\Nc1nnc(-c2ccccc2)c(-c2ccccc2)n1)c1cccc([N+](=O)[O-])c1, the activity change, negative = inhibition was inconclusive: 12.5%. For O=C(CNC(=O)c1ccc(F)cc1)c1ccccc1, the Potency was inconclusive: 22.4 µM [falling, partial curve]. With Cc1ccc(C2C(C(=O)c3cc4ccccc4o3)=C(O)C(=O)N2c2cc(C)on2)cc1 (configuration not stated) the “activity change, negative = inhibition” value was inactive: 7.84%. With COc1ccc2cc([C@H](C)C(=O)O)ccc2c1 the activity change, negative = inhibition was inconclusive: 5.6%. With COc1ccc2[nH]c3c(Cl)ncnc3c2c1 the activity change, negative = inhibition was inconclusive: 6.93%. For Cc1cc(C)n(CC(=O)N/N=C/c2ccc([N+](=O)[O-])s2)n1, the “activity change, negative = inhibition” value was inactive: -1.62%. In the case of Cc1ccc(CS(=O)(=O)c2ccc(C(=O)N3CCN(c4ccccn4)CC3)cc2[N+](=O)[O-])cc1, the Potency is reported as inconclusive: 15.8 µM [falling, partial curve, poor fit]. For C=CCn1c(O)c(N=O)c2cc(C)ccc21, the activity change, negative = inhibition was inconclusive: 16.8%. In the case of O=C(COc1ccccc1)NC1=NCCS1, the activity change, negative = inhibition is reported as inconclusive: 25%. In the case of COc1ccc(-n2c(N)c(C(=O)NCc3ccco3)c3nc4ccccc4nc32)c(OC)c1, the activity change, negative = inhibition is reported as inconclusive: 16.6%. For COc1ccccc1-c1cc(C(=O)NCCCn2ccnc2)no1, the Potency was inconclusive: 18.4 µM [falling, single point]. With CCOC(=O)C(=NCCOC)NNc1cc(Cl)ccc1Cl the Potency was inconclusive: 0.103 µM [rising, full curve, poor fit]. In the case of O=C(Nc1ccc(F)cc1)N1CCN(c2ccc(F)cc2)CC1, the Potency is reported as inconclusive: 22.4 µM [falling, partial curve, poor fit]. With O=C(N/N=C/c1sc(=O)n(Cc2ccc(Br)cc2)c1Cl)c1ccco1 the “activity change, negative = inhibition” value was inactive: -7.96%. In the case of N#Cc1cccc2cccc(S(=O)(=O)N3CCOCC3)c12, the activity change, negative = inhibition is reported as inconclusive: -1.76%. With O=C(Nc1ccc(F)cc1)N1CCn2c(nc3ccccc32)C1 the activity change, negative = inhibition was inconclusive: -18.2%. For COc1cc(-c2nnc(-c3cccnc3)o2)cc(OC)c1OC, the “activity change, negative = inhibition” value was inactive: -1.83%. With CCOc1ccc(NC(=O)CN(C)CC(=O)NC2CCCc3ccccc32)cc1OCC (configuration not stated) the activity change, negative = inhibition was inconclusive: -5.32%.
